We go through 17 compounds from the supplement of paper PMC11637464.

The test system of this assay is primary mouse Muller glia with Ascl1 overexpression. Briefly: total cells recovered per well; higher = more cells recovered. As to the method:
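Primary P11 mouse Muller glia carrying dox-inducible Ascl1 were treated with Tocriscreen Stem Cell Library compounds at 0.1, 1 or 10 uM together with doxycycline for 5 days, then profiled by sci-Plex hashing and sci-RNA-seq2. Cells were annotated by marker genes and cell-type counts per well were size-factor adjusted. Read-outs are the log2 fold change of Neuronal (NeuPre + bipolar) and ProL cell counts versus the Ascl1-only control wells of the same collection day, plus the raw number of recovered cells per well. There is one well per dose, and wells with fewer than 20 cells were discarded.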

Structures can show the parent of a compound that is named as a salt. The list shows a part of the results. Repeats are few or missing, and single values can be far off.

As to `CC1(C)CCC(C)(C)c2cc(C(=O)Nc3ccc(C(=O)O)cc3)ccc21` (collection day: 1), the “total cells recovered per well” value by setting is: (0.1 µM) 79; (1 µM) 66.

For `C[S+]([O-])c1ccc(-c2nc(-c3ccc(F)cc3)c(-c3ccncc3)[nH]2)cc1` (configuration not stated) (collection day: 1), the “total cells recovered per well” value is, setting by setting: (0.1 µM) 55; (1 µM) 64; (10 µM) 46.

Take `CC(C)(C)c1ccc(S(=O)(=O)NCc2ccc(C(=O)Nc3cccnc3)cc2)cc1` (collection day: 2): the “total cells recovered per well” value reads like this: (0.1 µM) 117; (1 µM) 80.

In the case of `CCN(CC)CCCCNc1ncc2cc(-c3cc(OC)cc(OC)c3)c(NC(=O)NC(C)(C)C)nc2n1` (collection day: 1), the “total cells recovered per well” value was 101 (0.1 µM) and 57 (1 µM).

Consider `Nc1[nH]ncc1-c1cc(Cl)ccc1Oc1cc(F)c(S(=O)(=O)Nc2cscn2)cc1Cl` (collection day: 2), for which the “total cells recovered per well” value (0.1 µM) stood at 141, the “total cells recovered per well” value (1 µM) is 169 and the “total cells recovered per well” value (10 µM) was determined as 116.

For the compound `O=C(O)c1ccc(S(=O)(=O)NC2CCCCC2)cc1` (collection day: 2), the “total cells recovered per well” value reads like this: (0.1 µM) 109; (1 µM) 130; (10 µM) 133.

With `Nc1ncnc2c1nc(Br)n2[C@@H]1O[C@@H]2COP(=O)(O)O[C@H]2[C@H]1O` [8-Bromo-cAMP, sodium salt] (collection day: 1), the “total cells recovered per well” value by setting is: (0.1 µM) 60; (1 µM) 60; (10 µM) 89.

With `Nc1ncn([C@H]2C[C@H](O)[C@@H](CO)O2)c(=O)n1` [Decitabine] (collection day: 1), the “total cells recovered per well” value worked out at 68 (0.1 µM), 71 (1 µM) and 85 (10 µM).

In the case of `CCCC(=O)Nc1ncnc2c1ncn2[C@@H]1O[C@@H]2COP(=O)(O)O[C@H]2[C@H]1OC(=O)CCC` [Dibutyryl-cAMP, sodium salt] (collection day: 1), the “total cells recovered per well” value by setting is: (0.1 µM) 74; (10 µM) 48.

With `Cc1ccc(/C=N/NC(=O)c2ccccc2Oc2ccccc2)o1` (collection day: 2), the “total cells recovered per well” value is, setting by setting: (0.1 µM) 101; (1 µM) 85; (10 µM) 74.

Regarding `CCn1c(=O)[nH]c2ccccc21` (collection day: 1), the “total cells recovered per well” value (0.1 µM) is 62, the “total cells recovered per well” value (1 µM) was determined as 62 and the “total cells recovered per well” value (10 µM) came to 53.

Take `OCCNC1CCCc2c1[nH]c1ccc(-c3ccccc3)cc21` (configuration not stated) (collection day: 2): the “total cells recovered per well” value reads like this: (0.1 µM) 124; (1 µM) 97.

Regarding `CN(CCOc1ccc(CC2SC(=O)NC2=O)cc1)c1ccccn1` (configuration not stated) [Rosiglitazone] (collection day: 2), the “total cells recovered per well” value (0.1 µM) amounted to 95, the “total cells recovered per well” value (1 µM) was determined as 98 and the “total cells recovered per well” value (10 µM) was found to be 118.

For the compound `COc1cccc(Oc2cccc3nc(Nc4ccc(C(C)C)cc4)nc(N)c23)c1` (collection day: 2), the “total cells recovered per well” value reads like this: (0.1 µM) 49; (1 µM) 93.

As to `O=C(O)c1ccc2cc(-c3ccc(O)c(C45CC6CC(CC(C6)C4)C5)c3)ccc2c1` (collection day: 1), the “total cells recovered per well” value (0.1 µM) was found to be 43.

As for `O=C1Cc2c([nH]c3ccc(Br)cc23)-c2ccccc2N1` [Kenpaullone] (collection day: 1), the “total cells recovered per well” value was 45 (0.1 µM) and 57 (1 µM).

As to `Cc1cccc(-c2[nH]ncc2-c2ccc3ncccc3n2)n1` (collection day: 2), the “total cells recovered per well” value (0.1 µM) was 47, the “total cells recovered per well” value (1 µM) was 80 and the “total cells recovered per well” value (10 µM) was 48.
